The list is a part of this screen's results and no random one: it is rich in T/C values a quarter to a half above the control, in often repeated tests (any T/C) and in doses without a T/C. Other doses and runs of a compound stand elsewhere. T/C: endpoint of the treated group in % of that of the vehicle group. Some doses have a count of surviving animals in place of a T/C: the source holds a T/C of zero for them, seemingly a mark for toxic or unscored doses. Some survivor counts are full or nearly so, which does not show that the dose was tolerated: the source hardly ever lists a survival T/C far under the control, and the zero likely stands for such cases as well. Survivors were counted at the toxicity check, usually on the fifth day, unless a day is given; later deaths do not show. Schedule codes are those of the source, read here as Q, the interval in days (D) or hours (H), X, the number of doses. Some structures stand for samples that the source files as different forms (salt, stereo form or complex); doses refer to the form tested. Brackets with × stand for listed records that agree. Where survival is the endpoint, this PubChem deposit counts one and a half times the control or more as active, and values a quarter to a half above the control carry no call in these data; other NCI protocols may use other cut-offs. Some doses were run more than once; the values are given in rising order.
System: L1210 leukemia ip in BDF1 mice, survival T/C
Test: NCI In Vivo Anticancer Drug Screen. Data for tumor model L1210 Leukemia (intraperitoneal) in B6D2F1 (BDF1) mice
Conditions: T/C endpoint: mean survival time, higher T/C = longer survival

For `COc1cc(C=Nc2ccc(-c3csc(-c4ccccc4)n3)c(Cl)c2)ccc1N(CCCl)CCCl`, the T/C (dose: 6.0 mg/kg/injection, schedule: Q01DX009 (ip), vehicle: other) was 137 % of control, the T/C (dose: 8.0 mg/kg/injection, schedule: Q01DX009 (ip), vehicle: carboxymethylcellulose (CMC)) was 128 % of control and the T/C (dose: 9.0 mg/kg/injection, schedule: Q01DX009 (ip), vehicle: other) was 135 % of control. The T/C (dose: 12.0 mg/kg/injection, schedule: Q01DX001 (ip), vehicle: carboxymethylcellulose (CMC)) was 126 % of control, the T/C (dose: 13.0 mg/kg/injection, schedule: Q01DX009 (ip), vehicle: carboxymethylcellulose (CMC)) was 137 % of control and the T/C (dose: 13.0 mg/kg/injection, schedule: Q01DX009 (ip), vehicle: other) was 138 % of control. The T/C (dose: 13.3 mg/kg/injection, schedule: Q01DX009 (ip), vehicle: carboxymethylcellulose (CMC)) was 144 % of control, the T/C (dose: 19.0 mg/kg/injection, schedule: Q01DX001 (ip), vehicle: carboxymethylcellulose (CMC)) was 129 % of control and the T/C (dose: 20.0 mg/kg/injection, schedule: Q01DX001 (ip), vehicle: carboxymethylcellulose (CMC)) was 135 % of control. The T/C (dose: 20.0 mg/kg/injection, schedule: Q01DX009 (ip), vehicle: carboxymethylcellulose (CMC)) was 140 % of control, the T/C (dose: 29.0 mg/kg/injection, schedule: Q01DX001 (ip), vehicle: carboxymethylcellulose (CMC)) was 134 % of control and the T/C (dose: 30.0 mg/kg/injection, schedule: Q01DX001 (ip), vehicle: carboxymethylcellulose (CMC)) was 131 % of control. For the same molecule, the T/C (dose: 44.0 mg/kg/injection, schedule: Q01DX001 (ip), vehicle: carboxymethylcellulose (CMC)) was 138 and 146 % of control, the survivor count (dose: 44.0 mg/kg/injection, schedule: Q01DX009 (ip), vehicle: carboxymethylcellulose (CMC)) was 6 of 6 and the T/C (dose: 45.0 mg/kg/injection, schedule: Q01DX001 (ip), vehicle: carboxymethylcellulose (CMC)) was 146 % of control. The survivor count (dose: 45.0 mg/kg/injection, schedule: Q01DX009 (ip), vehicle: carboxymethylcellulose (CMC)) was 6 of 6, the T/C (dose: 66.0 mg/kg/injection, schedule: Q01DX001 (ip), vehicle: carboxymethylcellulose (CMC)) was 138 % of control and the survivor count (dose: 66.0 mg/kg/injection, schedule: Q01DX009 (ip), vehicle: carboxymethylcellulose (CMC)) was 5 of 6. For the same molecule, the T/C (dose: 100.0 mg/kg/injection, schedule: Q01DX001 (ip), vehicle: carboxymethylcellulose (CMC)) was 138 % of control, the survivor count (dose: 100.0 mg/kg/injection, schedule: Q01DX009 (ip), vehicle: carboxymethylcellulose (CMC)) was 0 of 6 and the T/C (dose: 150.0 mg/kg/injection, schedule: Q01DX001 (ip), vehicle: carboxymethylcellulose (CMC)) was 138 % of control. The survivor count (dose: 150.0 mg/kg/injection, schedule: Q01DX009 (ip), vehicle: carboxymethylcellulose (CMC)) was 0 of 6 and the survivor count (dose: 400.0 mg/kg/injection, schedule: Q01DX001 (ip), vehicle: carboxymethylcellulose (CMC)) was 0 of 4.

`CSc1ccc(OC(=O)Nc2cc(C)ccc2C)cc1` was tested, and the survivor count (dose: 400.0 mg/kg/injection, schedule: Q01DX009 (ip), vehicle: Klucel (hydroxypropylcellulose) (HPC)) was 6 of 6.

`Cc1ccccc1N1CCN(c2ccccc2C)C1=C1N(c2ccccc2C)CCN1c1ccccc1C` was tested, and the survivor count (dose: 400.0 mg/kg/injection, schedule: Q04DX002 (ip), vehicle: DMSO) was 1 of 3.

`COC1=CCC23C(=O)C=CC(=O)C2(C1)C(=O)c1ccccc1C3=O` (configuration not stated) was tested, and the survivor count (dose: 25.0 mg/kg/injection, schedule: Q01DX005 (ip), vehicle: saline with Tween-80) was 0 of 4.

For `CC[N+]1(C2CCCCC2)CCCCC1`, the survivor count (dose: 75.0 mg/kg/injection, schedule: Q01DX001 (ip), vehicle: saline) was 1 of 6, the survivor count (dose: 80.0 mg/kg/injection, schedule: Q01DX001 (ip), vehicle: saline) was 3 of 6 and the survivor count (dose: 150.0 mg/kg/injection, schedule: Q01DX001 (ip), vehicle: saline) was 0 of 6 (2×). For the same molecule, the survivor count (dose: 300.0 mg/kg/injection, schedule: Q01DX001 (ip), vehicle: saline) was 0 of 6 (2×).

With `CCOC(=O)C1C(=O)C=C(c2ccccc2)CC1c1ccccc1` (configuration not stated) the survivor count (dose: 100.0 mg/kg/injection, schedule: Q04DX002 (ip), vehicle: saline with Tween-80) was 3 of 3.

`C[N+]1=C2CCCC2=C(N)CC1` was tested, and the survivor count (dose: 100.0 mg/kg/injection, schedule: Q04DX003 (ip), vehicle: saline) was 0 of 6, the survivor count (dose: 200.0 mg/kg/injection, schedule: Q04DX003 (ip), vehicle: saline) was 0 of 6 and the survivor count (dose: 400.0 mg/kg/injection, schedule: Q04DX003 (ip), vehicle: saline) was 1 of 6.

For `O=S(NOCCCCONS(=O)c1ccccc1)c1ccccc1` (configuration not stated), the survivor count (dose: 200.0 mg/kg/injection, schedule: Q01DX001 (ip), vehicle: saline with Tween-80) was 3 of 6, the survivor count (dose: 400.0 mg/kg/injection, schedule: Q01DX001 (ip), vehicle: saline with Tween-80) was 2 of 6 and the survivor count (dose: 400.0 mg/kg/injection, schedule: Q04DX002 (ip), vehicle: saline with Tween-80) was 3 of 6.
